Measurements as given in PubChem BioAssay AID540256 (National Center for Advancing Translational Sciences (NCATS), 2011).
About 3,700 (1.2%) of roughly 300,000 compounds were called active. The inconclusive results got no clear call from the source; some entries with a clear call stand among them for comparison. Calls come from the whole dose curve; tested in HEK293 cells. Potencies beside an inconclusive call are fits to weak or partial responses and may not hold up.

experiment: qHTS for Inhibitors of binding or entry into cells for Lassa Virus; details: Lassa virus pseudotype entry inhibition, cell reporter; series mostly up to 37.9 µM; note: nearly all actives have a fitted effect of over 50% in size
Potency is the fitted concentration of half-maximal effect.

Row | SMILES | Potency
1 | CC(C)[C@@H]1CC[C@@H](C)C[C@H]1OC(=O)C[n+]1cc(-c2ccc(Cl)cc2)n2c1CCCCC2 | inconclusive: 35.5 µM [inhibitor, single point]
2 | O=C(CSc1ccccn1)N1CCN(c2ncc(C(F)(F)F)cc2Cl)CC1 | inconclusive: 35.5 µM [inhibitor, single point]
3 | CC(C)CCNC(=O)C(c1ccc(O)cc1)N(Cc1cccs1)C(=O)C1COc2ccccc2O1 (centres undefined) | active: 16.4 µM
4 | CCN1C(=NCCCCO)N[C@@H](CCc2ccccc2)[C@H](C(=O)OC)[C@H]1C | inconclusive: 0.0019 µM [activator, full curve, poor fit]
5 | O=C(COC(=O)c1ccco1)NC1CCCCC1 | inactive
6 | C=C(C)CN(CC)C(=O)CCc1nnc(CCCc2ccccc2)o1 | inactive
7 | CCCCc1ccc(S(=O)(=O)N2CCN(C(=O)c3ccco3)CC2)cc1 | inconclusive: 0.206 µM [inhibitor, full curve, poor fit]
8 | Cc1ccc(SCC(=O)NC(=O)NCc2ccccc2)c(C)c1 | inconclusive: 20.6 µM [inhibitor, partial curve, poor fit]
9 | S=C(NCCc1ccccc1)N1CCc2ccccc2C1 | inactive
10 | Cc1cc2cc(CNC(=S)Nc3ccc(OC(F)(F)F)cc3)ccc2n1C | inconclusive: 32.6 µM [inhibitor, partial curve, poor fit]
11 | O=C(Cn1cnc2ccccc2c1=O)Nc1ccc(S(=O)(=O)N2CCCC2)cc1 | inactive
12 | Cc1ccccc1Cn1cc(/C=N/n2cnnc2)c2ccccc21 | inconclusive: 35.5 µM [inhibitor, single point]
13 | COc1ccc(C2=Nn3c(nnc3C3CCCCC3)SC2)cc1OC | inactive
14 | CCC(C)NC(=O)c1ccccc1-c1ccccc1C(=O)NC(C)CC (centres undefined) | inconclusive: 8.91 µM [inhibitor, partial curve, poor fit]
15 | CCC(C)NC(=O)c1ccc2nc(CCc3ccccc3)oc2c1 (centres undefined) | inconclusive: 35.5 µM [inhibitor, partial curve, poor fit]
16 | Cc1ccc(NC(=O)C(=O)NCC(c2ccc3c(c2)OCO3)N2CCOCC2)cc1C (centres undefined) | inconclusive: 2.51 µM [activator, full curve, poor fit]
17 | O=C1NC(=O)N(c2ccccc2F)C(=O)/C1=C/c1cn(CC(=O)N2CCOCC2)c2ccccc12 | inconclusive: 35.5 µM [inhibitor, single point]
18 | CC(=O)Nc1ccc(-c2csc(NC(=O)C3CCN(S(=O)(=O)c4cccs4)CC3)n2)cc1 | inconclusive: 35.5 µM [inhibitor, single point]
19 | CC(C)COc1ccc(C(=O)Nc2ccc(SC(F)F)cc2)cc1 | inconclusive: 0.058 µM [activator, full curve]
20 | CCCCOC(=O)c1ccc(NC(=O)c2cc(-c3cccs3)on2)cc1 | inactive
21 | CC(=O)Nc1ccc(S(=O)(=O)NC(C(=O)O)C2=CCC=CC2)cc1 (centres undefined) | inactive
22 | O=C(Nc1nc2n(n1)C(c1ccc(Cl)cc1)CC(c1ccc(Cl)cc1)N2)c1ccco1 (centres undefined) | inconclusive: 10 µM [inhibitor, partial curve]
23 | COc1ccc(OCC(=O)OCc2cc(=O)n3nc(C4CC4)sc3n2)cc1 | inactive

Row | SMILES | Potency
24 | O=c1c2cc(NC(=S)NCCCN3CCC(Cc4ccccc4)CC3)ccc2nc2n1CCCCC2 | inconclusive: 25.1 µM [inhibitor, single point]
25 | COc1ccccc1CC(=O)Nc1ccc(Cl)cc1C(=O)O | inactive
26 | Oc1ccc(-c2csc(Nc3ncccn3)n2)cc1 | inconclusive: 0.794 µM [inhibitor, full curve, poor fit]
27 | COc1ccc(S(=O)(=O)/N=C2\C=C(Nc3ccc(O)cc3)C(=O)c3ccccc32)cc1 | inconclusive: 3.98 µM [inhibitor, full curve, poor fit]
28 | CCCCCCCCNc1ncnc2[nH]ncc12 | inactive
29 | Cc1ccc2ccc(C3C(=O)c4ccccc4C3=O)nc2c1 | inconclusive: 0.58 µM [activator, partial curve, poor fit]
30 | Cc1ccc(CN2CCN(/N=C/c3cccnc3)CC2)c(C)c1 | inconclusive: 5.62 µM [inhibitor, single point]
31 | Cc1cc2nc(-c3ccc(SCc4ccccn4)nc3)[nH]c2cc1C | inconclusive: 8.91 µM [inhibitor, partial curve, poor fit]
32 | Cc1c(Cl)c(C(F)(F)F)nn1CC(=O)NCc1ccco1 | inactive
33 | CC(=O)Nc1ccc(S(=O)(=O)NN=CCCc2ccccc2)cc1 | inconclusive: 3.16 µM [inhibitor, partial curve, poor fit]
34 | CN(C)c1ccc(C2/C(=C(/O)c3ccccc3)C(=O)C(=O)N2CCCC(=O)O)cc1 (centres undefined) | inconclusive: 0.82 µM [inhibitor, partial curve, poor fit]
35 | CCCOc1ccc(-c2c(C(=O)N/N=C(\C)c3cccnc3)nnn2-c2nonc2N)cc1 | inconclusive: 5.62 µM [activator, partial curve, poor fit]
36 | c1ccc(Nc2nnc(SCc3cccc4ccccc34)s2)cc1 | inactive
37 | Cc1ccc(CCNC(=O)c2cc3c(-c4ccccc4F)nn(C)c3s2)cc1 | inactive
38 | CCOC(=O)c1c(CN(C)C)n(-c2ccccc2)c2cc(Br)c(OC)cc12 | inconclusive: 25.9 µM [inhibitor, single point]
39 | COc1ccc(OC)c(NC(=O)c2cn(CC(C)C)c(=O)c3cc(OC)c(OC)cc23)c1 | inconclusive: 35.5 µM [inhibitor, single point]
40 | O=C(Nc1ccc2oc(-c3ccc4ccccc4c3)nc2c1)c1ccc(Cl)c(Cl)c1 | inactive
41 | COc1ccc2oc(C(=O)N(Cc3ccco3)Cc3cccs3)c(C)c2c1 | inconclusive: 7.94 µM [inhibitor, partial curve, poor fit]
42 | Cc1ccc(C(C(=O)NCc2ccco2)N(Cc2ccco2)C(=O)CNC(=O)c2ccco2)cc1 (centres undefined) | inactive
43 | FC(F)(F)c1nnc(-c2ccccc2)nc1Oc1ccccc1 | inconclusive: 0.206 µM [inhibitor, single point]
44 | c1ccc(Nc2nc(N3CCCC3)nc(N3CCCC3)n2)cc1 | inconclusive: 14.6 µM [inhibitor, partial curve, poor fit]
45 | CNc1nc2ccccc2n1N | inconclusive: 0.891 µM [inhibitor, partial curve, poor fit]
46 | COc1ccc(N2CCN(CC(=O)NC(C)c3ccccc3)CC2)cc1 (centres undefined) | inconclusive: 8.91 µM [inhibitor, partial curve, poor fit]

Arranged by length of the SMILES (largest number first): part of the list above.
Row | SMILES | Potency
27 | COc1ccc(S(=O)(=O)/N=C2\C=C(Nc3ccc(O)cc3)C(=O)c3ccccc32)cc1 | inconclusive: 3.98 µM [inhibitor, full curve, poor fit]
34 | CN(C)c1ccc(C2/C(=C(/O)c3ccccc3)C(=O)C(=O)N2CCCC(=O)O)cc1 (centres undefined) | inconclusive: 0.82 µM [inhibitor, partial curve, poor fit]
35 | CCCOc1ccc(-c2c(C(=O)N/N=C(\C)c3cccnc3)nnn2-c2nonc2N)cc1 | inconclusive: 5.62 µM [activator, partial curve, poor fit]
24 | O=c1c2cc(NC(=S)NCCCN3CCC(Cc4ccccc4)CC3)ccc2nc2n1CCCCC2 | inconclusive: 25.1 µM [inhibitor, single point]
40 | O=C(Nc1ccc2oc(-c3ccc4ccccc4c3)nc2c1)c1ccc(Cl)c(Cl)c1 | inactive
38 | CCOC(=O)c1c(CN(C)C)n(-c2ccccc2)c2cc(Br)c(OC)cc12 | inconclusive: 25.9 µM [inhibitor, single point]
37 | Cc1ccc(CCNC(=O)c2cc3c(-c4ccccc4F)nn(C)c3s2)cc1 | inactive
23 | COc1ccc(OCC(=O)OCc2cc(=O)n3nc(C4CC4)sc3n2)cc1 | inactive
41 | COc1ccc2oc(C(=O)N(Cc3ccco3)Cc3cccs3)c(C)c2c1 | inconclusive: 7.94 µM [inhibitor, partial curve, poor fit]
46 | COc1ccc(N2CCN(CC(=O)NC(C)c3ccccc3)CC2)cc1 (centres undefined) | inconclusive: 8.91 µM [inhibitor, partial curve, poor fit]
33 | CC(=O)Nc1ccc(S(=O)(=O)NN=CCCc2ccccc2)cc1 | inconclusive: 3.16 µM [inhibitor, partial curve, poor fit]
30 | Cc1ccc(CN2CCN(/N=C/c3cccnc3)CC2)c(C)c1 | inconclusive: 5.62 µM [inhibitor, single point]
32 | Cc1c(Cl)c(C(F)(F)F)nn1CC(=O)NCc1ccco1 | inactive
36 | c1ccc(Nc2nnc(SCc3cccc4ccccc34)s2)cc1 | inactive
25 | COc1ccccc1CC(=O)Nc1ccc(Cl)cc1C(=O)O | inactive
26 | Oc1ccc(-c2csc(Nc3ncccn3)n2)cc1 | inconclusive: 0.794 µM [inhibitor, full curve, poor fit]
28 | CCCCCCCCNc1ncnc2[nH]ncc12 | inactive
45 | CNc1nc2ccccc2n1N | inconclusive: 0.891 µM [inhibitor, partial curve, poor fit]

More entries follow:

Row | SMILES | Potency
47 | Cc1ccc(Cn2c(=O)n(CCCCC(=O)NCc3ccccc3Cl)c(=O)c3ccccc32)cc1 | inconclusive: 35.5 µM [inhibitor, single point]
48 | O=C(CSc1nnc(-c2cccnc2)o1)Nc1ccc(Cl)cc1 | inconclusive: 3.16 µM [inhibitor, partial curve, poor fit]
49 | COc1ccc(CNC(=O)Cn2cc(C(F)(F)F)ccc2=O)cc1 | inactive
50 | O=C(NCc1ccccc1F)C(=O)NCC(c1ccco1)S(=O)(=O)c1cccs1 (centres undefined) | inconclusive: 31.6 µM [inhibitor, partial curve, poor fit]
51 | CC(C)CNC(=S)N1CCN(c2nc(-c3ccc(Cl)cc3)cs2)CC1 | inactive
52 | CCC(=O)N1CCc2cc(Br)cc(S(=O)(=O)CCC(=O)N3CCN(c4cc(C)ccc4C)CC3)c21 | inactive
53 | Cc1ccc(N2CCN(C(=O)CNS(=O)(=O)c3ccc(Br)s3)CC2C)cc1 (centres undefined) | inconclusive: 35.5 µM [inhibitor, single point]
54 | CCOC(=O)c1cnc2ccc(C)cc2c1Nc1ccc(N(CC)CC)cc1 | inconclusive: 4.47 µM [inhibitor, partial curve, poor fit]
55 | c1ccc2c(c1)[nH]c1c(NCC3CCCO3)ncnc12 (centres undefined) | inactive
56 | Cc1cccc(C(=O)NC2=NCCS2)c1 | inconclusive: 25.1 µM [inhibitor, single point]
57 | Nc1nc(-c2ccccc2)c(-c2ccccc2)s1 | inconclusive: 0.316 µM [activator, partial curve, poor fit]
58 | CN1CCc2cc(Cl)c(O)cc2[C@@H](c2ccccc2)C1 | inactive
59 | COc1cc(OC)c(OC)cc1/C=C1\SC(N2CCCCC2)=NC1=O | inactive
60 | CN1CCN(c2ccc(/C=C3\C(=O)NC(=S)N(c4cccc(Br)c4)C3=O)o2)CC1 | inconclusive: 11.2 µM [inhibitor, partial curve, poor fit]
61 | O=C(Nc1ccc(F)cc1)C1CCN(S(=O)(=O)c2ccc3c(c2)CCCN3C(=O)C2CCC2)CC1 | inconclusive: 2.82 µM [inhibitor, full curve]
62 | O=C(COc1ccccc1)Nc1nccs1 | inactive
63 | O=C(Nc1ccc2oc(-c3ccccc3)nc2c1)c1ccco1 | inconclusive: 2.06 µM [activator, partial curve, poor fit]
64 | COc1ccc(NC(=O)c2cccc(N3C(=O)C4C5CCC(C5)C4C3=O)c2)cc1 (centres undefined) | inactive
65 | Cc1cccc(OCC(=O)NC(=S)NNC(=O)c2ccncc2)c1 | inconclusive: 1.26 µM [inhibitor, single point]
66 | CN(CC(=O)NCc1ccc(F)cc1)S(=O)(=O)c1ccc(Br)s1 | inactive
67 | Nc1ccc(N2C(=O)c3ccccc3C2=O)c(Cl)c1 | inconclusive: 0.0231 µM [activator, full curve, poor fit]
68 | O=C(c1ccccc1)N1CCCc2ccccc21 | inactive
69 | CCCC1(c2ccccc2)NC(=O)N(CC(=O)NCC2COc3ccccc3O2)C1=O (centres undefined) | inconclusive: 7.94 µM [inhibitor, partial curve, poor fit]

Given with tabs: entries from further up.
Row	SMILES	Potency
22	O=C(Nc1nc2n(n1)C(c1ccc(Cl)cc1)CC(c1ccc(Cl)cc1)N2)c1ccco1 (centres undefined)	inconclusive: 10 µM [inhibitor, partial curve]
32	Cc1c(Cl)c(C(F)(F)F)nn1CC(=O)NCc1ccco1	inactive
